# Experimental data: PubChem BioAssay AID590 (National Center for Advancing Translational Sciences (NCATS), 2007)
# Among all 59,000 compounds or so, about 6,500 (11%) were called active. This list was built around the results that the source calls inconclusive (neither active nor inactive); the mix of calls is not that of the screen. No stated cut-off is given here; in the data, active means max dye-equivalent concentration above about 10 nM; inconclusive means mostly about 1.1 nM to 9.6 nM; inactive means weaker than that. Some compounds were tested as several samples or in several runs, with calls that do not always agree.
# Assay: qHTS Assay for Spectroscopic Profiling in A350 Spectral Region
# Settings: Compound autofluorescence, 340/450 nm, Alexa 350 dye-equivalents; hits give high values
row,Compound,max dye-equivalent concentration
1,C=CCOc1c(Cl)cc(C2NC(=O)NC(C)=C2C(=O)OC)cc1Cl (centres undefined),inconclusive: 3.4 nM
2,CCSc1nc(=S)n(CC)c(C)c1C(C)=O,inactive
3,Brc1c(NC2=NCCN2)ccc2nccnc12,active: 14 nM
4,COc1ccc(-c2nnc(NC(=O)c3cc(C)on3)s2)cc1,inconclusive: 1.2 nM
5,CCOC(=O)COc1cc2c3c(c(=O)oc2cc1C)CCCC3,active: 10 nM
6,CN(C)c1ccc(-c2ccc3ncnc(N(C)C)c3c2)cc1,inconclusive: 2.3 nM
7,CCCC(=O)Nc1cc(C)c(NC(=O)C23CC4CC(CC(C4)C2)C3)cn1,inconclusive: 2.5 nM
8,CCOc1cccc(C2C(C(=O)c3ccc(C)o3)=C(O)C(=O)N2Cc2ccncc2)c1 (centres undefined),inconclusive: 1.7 nM
9,CCOC(=O)c1c(C)[nH]c(C(=O)COC(=O)c2ccccc2NC(=O)c2ccco2)c1C,inconclusive: 2.7 nM
10,CCOC(=O)c1cnc2c(-c3ccccc3)c(C)nn2c1N,inconclusive: 4.7 nM
11,COc1ccc2nc(C)cc(SCC(=O)O)c2c1,inconclusive: 3 nM
12,COc1ccc(C(=O)c2oc3ccccc3c2N)cc1,inconclusive: 9.5 nM
13,COC(=O)CN(c1ccc2c(c1)OCO2)S(C)(=O)=O,inconclusive: 2.9 nM
14,CCc1ccc2[nH]c(=O)c(CN(Cc3ccc4c(c3)OCO4)Cc3nnnn3C3CCCC3)cc2c1,inconclusive: 1.1 nM
15,COc1cccc(-c2nnc(NC(=O)Cc3cccs3)s2)c1,inactive
16,CN(C)Cc1c(C#N)c2ccccc2n1C,inconclusive: 3.1 nM
17,Cc1cc(N2CCN(C3CCCC3)CC2)n2ncc(-c3ccccc3)c2n1,inconclusive: 7 nM
18,CC1(C)CC2CC(C)(CN2C(=O)COC(=O)c2n[nH]c(=O)c3ccccc23)C1 (centres undefined),inconclusive: 1.2 nM
19,CC(C)CNC(=O)C1CCN(c2ccc(S(=O)(=O)N3CCOCC3)cc2Cl)CC1,inconclusive: 6.6 nM
20,COC(=O)C1C(=O)C2=C(CC1C)NC(=O)CC2c1cccc(C)c1 (centres undefined),inconclusive: 6.7 nM

row,Compound,max dye-equivalent concentration
1,Cc1ccc2[nH]c(=O)c(C(c3nnnn3CC3CCCO3)N3CCCc4ccccc43)cc2c1 (centres undefined),active: 12 nM
2,Cc1ccc(-c2c(C)n([O-])c3c([n+]2=O)CCC3)o1,inconclusive: 1.1 nM
3,COc1ccccc1N1CCN(CCCCOc2ccc(F)cc2)CC1,inconclusive: 1.1 nM
4,COc1ccc(CN[C@H](C)C(=O)O)cc1,inactive
5,Cn1c(SCc2cc(=O)n3cc(Br)ccc3n2)nnc1C1COc2ccccc2O1 (centres undefined),active: 11 nM
6,OC(CCN1CCCCC1)(c1ccccc1)C1CCCCC1 (centres undefined),inconclusive: 1.4 nM
7,C=CCNc1nc(N2CCCC2)nc2ccccc12,active: 220 nM
8,CCNc1ncc2nc(-c3cc(F)cc(F)c3)c(=O)n(Cc3cccs3)c2n1,active: 25 nM
9,CCc1cccc(NC(=O)C2CCCN(S(=O)(=O)c3c(C)[nH]c(=O)[nH]c3=O)C2)c1 (centres undefined),inconclusive: 3.2 nM
10,CC(O)Cc1nsc(NC(=O)c2ccc(Br)o2)n1 (centres undefined),inactive
11,CCCCN(Cc1cc2cc(OC)ccc2[nH]c1=O)C(=O)COc1ccccc1,active: 66 nM
12,Cc1cccc(OCCCC(=O)Nc2nccs2)c1,inconclusive: 1.1 nM
13,CCOC(=O)C1=C(C)NC(=O)NC1c1ccco1 (centres undefined),inconclusive: 1.7 nM
14,Oc1ccc(Cl)cc1CNCC1CCCO1 (centres undefined),inconclusive: 5.3 nM
15,N#C[C@@H](Cc1ccc(O)c(O)c1)C(=O)N1CCc2ccccc21,inconclusive: 1.4 nM
16,Cn1c(=O)c(C(=O)c2ccccc2)nc2ccccc21,inconclusive: 2.5 nM
17,CCCC(=O)Nc1nc2ccc(NC(=O)c3ccc(Br)o3)cc2s1,inconclusive: 6.3 nM
18,FC(F)(F)c1cc(-c2ccco2)nc(NCc2cccs2)n1,inconclusive: 7.1 nM
19,CCCCC(=O)Nc1cc(N(C)C)nc2ccccc12,active: 620 nM
20,Nc1c(N2CCCCC2)c(=O)[nH]c(=O)n1-c1ccccc1,inconclusive: 1.1 nM

# Pulled by compound from the entries so far:
row,Compound,max dye-equivalent concentration
3,COc1ccccc1N1CCN(CCCCOc2ccc(F)cc2)CC1,inconclusive: 1.1 nM
18,FC(F)(F)c1cc(-c2ccco2)nc(NCc2cccs2)n1,inconclusive: 7.1 nM
2,Cc1ccc(-c2c(C)n([O-])c3c([n+]2=O)CCC3)o1,inconclusive: 1.1 nM

# Following part:

row,Compound,max dye-equivalent concentration
1,O=C(c1ccco1)n1c(=S)nc2ccccn21,inconclusive: 10 nM
2,CCN(CC)CCN1C(=O)C(O)=C(C(C)=O)C1c1ccccc1 (centres undefined),inactive
3,N#CC1=C2SCN(Cc3ccccc3)CN2C(=O)CC1c1ccc2c(c1)OCO2 (centres undefined),inconclusive: 1.4 nM
4,CCC(=O)N1Cc2ccccc2-c2ccccc2C1=O,active: 36 nM
5,NC(=O)c1c(N)sc2c1CCCC2,inconclusive: 5 nM
6,O=c1c2[nH]c3ccccc3c2ncn1C1CCCCC1,inconclusive: 1.1 nM
7,O=c1c2ccccc2c(C=NCCO)c(O)n1-c1ccccc1,active: 28 nM
8,COC(=O)c1ccc(C2C(C#N)=C(C)NC3=C2C(=O)CC(C)(C)C3)cc1 (centres undefined),active: 2700 nM
9,O=C(CN1C(=O)C2CCc3[nH]c4ccccc4c3C2C1=O)N1CCCC1 (centres undefined),inconclusive: 1.9 nM
10,Cc1cc(C)nc(NC(=O)Nc2ccccc2C(F)(F)F)n1,inconclusive: 5.5 nM
11,c1cncc(CNCc2cccnc2)c1,inactive
12,CC1(C)Cc2c(sc3nc(NCCN4CCOCC4)n4ncnc4c23)CO1,inconclusive: 6.1 nM
13,Cc1cc(C)cc(NC(=O)CSc2nnc(-c3ccccc3C)o2)c1,inconclusive: 1.6 nM
14,NC(=O)C/C=C\CC(N)=O,inactive
15,CCOC(=O)N1CCN(C(=O)c2ccc(Cl)c(S(=O)(=O)N3CCOCC3)c2)CC1,inconclusive: 1.3 nM
16,Clc1ccc2nc(CN3CCCc4ccccc43)cn2c1,inconclusive: 3.4 nM
17,CCC1(C)Cc2c(sc3c2c(=O)n(C)c2nnc(SCC(=O)c4ccccc4)n32)CO1 (centres undefined),inconclusive: 1.7 nM
18,CN(C)c1ccc(-c2nnn(CC(=O)Nc3ccccc3N3CCOCC3)n2)cc1,inactive
19,COc1ccc(CCn2nnnc2C(CC(C)C)N2CCC(C(N)=O)CC2)cc1OC (centres undefined),inconclusive: 3.2 nM
